Measured values: PubChem BioAssay (EPA / NIEHS)
The shares of active, inactive and inconclusive entries below differ from those in the screen. Potencies of inconclusive entries are doubtful fits and often do not repeat. Calls of active or inactive are those of the source. How the source made its calls: active means hit-call score of the fitted dose curve at least 0.9, where 1 is the maximum; inconclusive means response in the unintended direction; inactive means score below 0.9.

By UniProt entry, the sequences of proteins in these tests, tags left out. Where a name states a change or a piece, a line headed by the entry shows the natural chain unless it says otherwise.
UniProt P62508: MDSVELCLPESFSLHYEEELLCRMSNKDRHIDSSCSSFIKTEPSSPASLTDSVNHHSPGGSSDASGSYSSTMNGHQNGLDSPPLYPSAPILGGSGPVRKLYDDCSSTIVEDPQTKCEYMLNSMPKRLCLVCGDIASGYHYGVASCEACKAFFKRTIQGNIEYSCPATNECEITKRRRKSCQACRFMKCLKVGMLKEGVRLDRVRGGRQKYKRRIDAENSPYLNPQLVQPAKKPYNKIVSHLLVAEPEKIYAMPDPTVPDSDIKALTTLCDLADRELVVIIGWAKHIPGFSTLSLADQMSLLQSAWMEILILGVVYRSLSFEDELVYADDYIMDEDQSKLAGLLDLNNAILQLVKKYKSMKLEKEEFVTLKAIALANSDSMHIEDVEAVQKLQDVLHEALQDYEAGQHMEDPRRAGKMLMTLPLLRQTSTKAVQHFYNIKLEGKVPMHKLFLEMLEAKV
UniProt P41235: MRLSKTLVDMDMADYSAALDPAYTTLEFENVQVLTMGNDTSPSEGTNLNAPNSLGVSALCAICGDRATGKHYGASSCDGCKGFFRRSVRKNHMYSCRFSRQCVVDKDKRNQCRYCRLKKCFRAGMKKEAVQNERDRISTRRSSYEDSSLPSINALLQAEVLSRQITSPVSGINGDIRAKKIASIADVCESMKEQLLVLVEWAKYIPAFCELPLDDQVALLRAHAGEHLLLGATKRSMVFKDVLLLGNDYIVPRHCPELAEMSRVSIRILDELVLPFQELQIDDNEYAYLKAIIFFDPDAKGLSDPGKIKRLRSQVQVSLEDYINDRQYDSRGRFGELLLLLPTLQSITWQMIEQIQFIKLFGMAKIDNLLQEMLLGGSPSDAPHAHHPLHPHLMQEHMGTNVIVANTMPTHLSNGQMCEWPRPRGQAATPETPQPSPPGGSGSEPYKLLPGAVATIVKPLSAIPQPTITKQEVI
UniProt P43354, whole entry, looked up: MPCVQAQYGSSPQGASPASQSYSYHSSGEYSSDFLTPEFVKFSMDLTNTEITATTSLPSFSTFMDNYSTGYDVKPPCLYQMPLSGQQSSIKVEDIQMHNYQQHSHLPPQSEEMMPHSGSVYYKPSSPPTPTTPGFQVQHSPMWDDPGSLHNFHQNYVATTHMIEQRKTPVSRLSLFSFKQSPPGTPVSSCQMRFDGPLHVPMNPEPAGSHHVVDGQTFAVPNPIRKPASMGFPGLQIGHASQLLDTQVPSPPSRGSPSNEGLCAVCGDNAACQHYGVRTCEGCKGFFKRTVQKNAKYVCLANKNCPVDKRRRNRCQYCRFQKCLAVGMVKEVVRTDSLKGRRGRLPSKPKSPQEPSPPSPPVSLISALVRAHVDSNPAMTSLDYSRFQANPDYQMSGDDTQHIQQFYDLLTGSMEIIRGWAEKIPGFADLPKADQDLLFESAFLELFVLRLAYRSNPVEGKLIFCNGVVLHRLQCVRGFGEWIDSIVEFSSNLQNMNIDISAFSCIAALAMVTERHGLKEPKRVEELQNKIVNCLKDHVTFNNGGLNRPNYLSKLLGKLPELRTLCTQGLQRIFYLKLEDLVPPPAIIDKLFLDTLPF
UniProt Q07869: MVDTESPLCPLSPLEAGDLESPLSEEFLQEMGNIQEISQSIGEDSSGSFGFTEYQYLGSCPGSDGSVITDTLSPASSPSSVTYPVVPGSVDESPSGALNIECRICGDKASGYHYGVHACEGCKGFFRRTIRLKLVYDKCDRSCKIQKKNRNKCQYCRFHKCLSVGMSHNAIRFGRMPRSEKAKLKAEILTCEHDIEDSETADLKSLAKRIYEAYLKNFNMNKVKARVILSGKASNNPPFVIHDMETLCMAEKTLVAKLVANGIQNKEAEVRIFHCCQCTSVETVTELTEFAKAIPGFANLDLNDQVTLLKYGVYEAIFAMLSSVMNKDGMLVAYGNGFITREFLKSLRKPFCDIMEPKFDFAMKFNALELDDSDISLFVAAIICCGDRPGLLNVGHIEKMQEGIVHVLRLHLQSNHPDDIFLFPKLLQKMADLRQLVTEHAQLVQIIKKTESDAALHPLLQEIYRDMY
UniProt P10276, whole entry, looked up: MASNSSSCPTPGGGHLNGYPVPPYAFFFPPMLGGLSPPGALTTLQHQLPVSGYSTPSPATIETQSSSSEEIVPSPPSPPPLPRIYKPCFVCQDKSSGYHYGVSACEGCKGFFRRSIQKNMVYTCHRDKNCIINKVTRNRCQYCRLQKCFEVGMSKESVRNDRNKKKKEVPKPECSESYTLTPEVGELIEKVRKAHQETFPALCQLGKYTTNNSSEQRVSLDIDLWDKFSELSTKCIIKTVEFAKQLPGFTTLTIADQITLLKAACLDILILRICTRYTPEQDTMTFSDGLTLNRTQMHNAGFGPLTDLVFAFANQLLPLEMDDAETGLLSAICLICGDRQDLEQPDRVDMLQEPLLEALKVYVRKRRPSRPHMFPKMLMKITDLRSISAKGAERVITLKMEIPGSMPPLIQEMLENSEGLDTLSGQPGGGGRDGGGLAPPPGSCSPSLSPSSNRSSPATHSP
UniProt P13631, whole entry, looked up: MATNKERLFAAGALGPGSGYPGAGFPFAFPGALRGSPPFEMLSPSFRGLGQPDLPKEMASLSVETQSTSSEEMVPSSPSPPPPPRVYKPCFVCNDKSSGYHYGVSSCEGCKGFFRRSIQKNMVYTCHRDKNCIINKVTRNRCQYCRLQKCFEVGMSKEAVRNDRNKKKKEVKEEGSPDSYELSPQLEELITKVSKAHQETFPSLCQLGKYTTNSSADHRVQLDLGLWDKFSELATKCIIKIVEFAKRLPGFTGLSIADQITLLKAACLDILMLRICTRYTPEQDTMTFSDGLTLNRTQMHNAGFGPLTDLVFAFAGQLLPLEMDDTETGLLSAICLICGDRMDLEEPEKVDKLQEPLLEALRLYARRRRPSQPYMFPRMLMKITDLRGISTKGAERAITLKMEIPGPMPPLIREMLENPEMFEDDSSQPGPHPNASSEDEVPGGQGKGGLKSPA
UniProt P28702: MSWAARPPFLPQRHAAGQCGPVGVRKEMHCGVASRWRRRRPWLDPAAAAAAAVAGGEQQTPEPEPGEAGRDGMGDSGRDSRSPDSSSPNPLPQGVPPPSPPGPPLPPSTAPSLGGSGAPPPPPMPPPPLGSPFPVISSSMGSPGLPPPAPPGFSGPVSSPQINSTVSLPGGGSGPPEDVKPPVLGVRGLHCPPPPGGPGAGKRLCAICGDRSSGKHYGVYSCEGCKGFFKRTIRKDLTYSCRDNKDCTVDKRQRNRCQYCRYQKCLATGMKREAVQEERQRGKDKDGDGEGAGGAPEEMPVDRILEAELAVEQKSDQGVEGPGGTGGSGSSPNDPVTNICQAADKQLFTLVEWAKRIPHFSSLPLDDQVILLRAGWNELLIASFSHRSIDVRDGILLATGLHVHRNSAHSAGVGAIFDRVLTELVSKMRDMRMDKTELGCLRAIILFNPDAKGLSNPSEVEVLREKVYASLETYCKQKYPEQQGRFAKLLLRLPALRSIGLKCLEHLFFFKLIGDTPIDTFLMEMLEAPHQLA
UniProt P10827: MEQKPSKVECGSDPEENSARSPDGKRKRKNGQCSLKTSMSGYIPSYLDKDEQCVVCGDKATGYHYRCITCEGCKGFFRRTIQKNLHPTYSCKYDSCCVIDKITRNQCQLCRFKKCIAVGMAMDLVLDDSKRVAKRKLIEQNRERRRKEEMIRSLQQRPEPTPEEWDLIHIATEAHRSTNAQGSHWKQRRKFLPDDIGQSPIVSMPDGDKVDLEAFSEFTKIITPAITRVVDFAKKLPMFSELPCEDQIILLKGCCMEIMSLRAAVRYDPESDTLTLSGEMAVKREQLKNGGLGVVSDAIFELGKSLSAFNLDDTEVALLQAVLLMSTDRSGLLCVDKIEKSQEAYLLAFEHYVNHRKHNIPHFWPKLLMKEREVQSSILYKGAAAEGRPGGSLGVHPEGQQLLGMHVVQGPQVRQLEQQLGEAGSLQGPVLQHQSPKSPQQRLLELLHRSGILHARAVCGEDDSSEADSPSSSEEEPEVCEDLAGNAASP
UniProt Q13133, whole entry, looked up: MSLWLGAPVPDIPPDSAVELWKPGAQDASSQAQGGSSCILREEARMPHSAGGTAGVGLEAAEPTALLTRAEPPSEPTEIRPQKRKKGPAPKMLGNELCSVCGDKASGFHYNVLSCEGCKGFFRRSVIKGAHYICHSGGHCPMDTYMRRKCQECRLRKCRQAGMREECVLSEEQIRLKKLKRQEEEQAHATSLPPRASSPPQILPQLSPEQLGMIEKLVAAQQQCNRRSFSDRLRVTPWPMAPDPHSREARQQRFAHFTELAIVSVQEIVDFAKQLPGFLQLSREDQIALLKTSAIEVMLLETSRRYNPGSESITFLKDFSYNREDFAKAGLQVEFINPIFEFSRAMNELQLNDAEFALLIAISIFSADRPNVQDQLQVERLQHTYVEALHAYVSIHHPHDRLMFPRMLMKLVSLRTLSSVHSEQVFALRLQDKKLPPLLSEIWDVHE
UniProt P55055, whole entry, looked up: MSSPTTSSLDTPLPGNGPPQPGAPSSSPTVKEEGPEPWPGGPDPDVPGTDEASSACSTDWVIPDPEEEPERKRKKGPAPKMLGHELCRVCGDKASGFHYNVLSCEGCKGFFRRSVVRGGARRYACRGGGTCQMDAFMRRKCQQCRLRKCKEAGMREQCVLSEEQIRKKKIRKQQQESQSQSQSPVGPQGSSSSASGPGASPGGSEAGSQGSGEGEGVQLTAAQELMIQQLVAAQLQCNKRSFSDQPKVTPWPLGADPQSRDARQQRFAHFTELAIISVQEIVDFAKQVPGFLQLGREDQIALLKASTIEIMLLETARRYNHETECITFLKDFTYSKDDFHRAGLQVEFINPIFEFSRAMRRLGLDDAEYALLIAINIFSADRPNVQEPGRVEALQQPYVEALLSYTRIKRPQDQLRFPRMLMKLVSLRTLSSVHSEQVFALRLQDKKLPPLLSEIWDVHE
UniProt P10826, whole entry, looked up: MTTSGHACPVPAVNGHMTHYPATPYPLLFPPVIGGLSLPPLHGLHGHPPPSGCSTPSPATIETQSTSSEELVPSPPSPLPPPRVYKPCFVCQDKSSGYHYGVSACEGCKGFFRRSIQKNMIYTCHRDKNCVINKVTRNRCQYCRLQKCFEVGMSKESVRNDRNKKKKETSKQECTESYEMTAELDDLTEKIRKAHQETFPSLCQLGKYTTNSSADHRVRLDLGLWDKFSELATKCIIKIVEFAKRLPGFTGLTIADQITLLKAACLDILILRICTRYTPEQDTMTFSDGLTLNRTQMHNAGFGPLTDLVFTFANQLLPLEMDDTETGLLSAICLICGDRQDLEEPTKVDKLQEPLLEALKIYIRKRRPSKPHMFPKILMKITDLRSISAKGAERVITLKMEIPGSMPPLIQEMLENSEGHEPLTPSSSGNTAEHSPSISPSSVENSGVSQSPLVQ
UniProt Q92753: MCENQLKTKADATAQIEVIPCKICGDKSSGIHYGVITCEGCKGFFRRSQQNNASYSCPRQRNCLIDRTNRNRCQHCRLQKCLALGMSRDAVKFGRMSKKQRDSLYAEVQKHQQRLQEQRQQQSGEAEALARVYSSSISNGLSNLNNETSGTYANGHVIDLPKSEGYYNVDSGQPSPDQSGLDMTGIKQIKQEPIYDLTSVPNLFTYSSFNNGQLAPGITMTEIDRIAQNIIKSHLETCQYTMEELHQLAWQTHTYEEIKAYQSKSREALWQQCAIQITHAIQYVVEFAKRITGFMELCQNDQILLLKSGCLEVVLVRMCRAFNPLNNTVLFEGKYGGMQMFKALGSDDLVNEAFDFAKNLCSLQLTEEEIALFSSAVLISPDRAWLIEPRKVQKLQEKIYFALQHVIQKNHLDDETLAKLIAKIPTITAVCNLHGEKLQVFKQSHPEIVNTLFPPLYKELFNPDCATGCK
UniProt P51449: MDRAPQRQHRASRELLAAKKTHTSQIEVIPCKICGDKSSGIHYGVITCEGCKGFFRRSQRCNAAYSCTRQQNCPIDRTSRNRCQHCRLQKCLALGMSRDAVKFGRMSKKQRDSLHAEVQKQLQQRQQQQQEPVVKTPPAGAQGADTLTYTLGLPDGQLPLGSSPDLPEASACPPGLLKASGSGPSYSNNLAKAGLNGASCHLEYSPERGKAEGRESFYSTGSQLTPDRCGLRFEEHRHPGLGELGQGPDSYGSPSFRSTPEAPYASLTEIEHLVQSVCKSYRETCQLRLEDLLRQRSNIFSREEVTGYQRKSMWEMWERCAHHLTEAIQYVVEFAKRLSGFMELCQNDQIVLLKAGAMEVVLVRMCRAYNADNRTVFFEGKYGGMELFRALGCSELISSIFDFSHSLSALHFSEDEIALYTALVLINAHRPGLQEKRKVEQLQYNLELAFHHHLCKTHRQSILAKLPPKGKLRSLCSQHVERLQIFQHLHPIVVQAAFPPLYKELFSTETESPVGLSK

Legend:
[1] = ATG_GAL4_TRANS: Attagene TRANS-FACTORIAL HepG2 Assay for GAL4 (Internal Marker) (AID 2282976); conditions: HepG2 Attagene TRANS GAL4 internal marker reporter
In short: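 RT-PCR/capillary electrophoresis readout of reporter mRNA. HepG2, transient MRTU transfection (GAL4-UAS reporters), 24 h compound exposure. Background-control endpoint, positive direction vs DMSO baseline.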

[2] = molecular target: Estrogen-related receptor gamma (Homo sapiens) (UniProt P62508); assay: ATG_ERRg_TRANS: Attagene TRANS-FACTORIAL HepG2 Assay for human Estrogen-Related Receptor gamma (ERRg) (AID 2282977); conditions: HepG2 Attagene TRANS reporter, ERRg transactivation;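 further: hits increase reporter signal over DMSO so potencies reflect activators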
In short: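 HepG2 cells transiently transfected with multiplexed GAL4-UAS reporter units driven by chimeric NR-Gal4 proteins; 24 h exposure. Reporter mRNA quantified by RT-PCR, fluorescent labelling, HpaI digestion and capillary electrophoresis; gain of signal vs DMSO.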

[3] = molecular target: Hepatocyte nuclear factor 4-alpha (Homo sapiens) (UniProt P41235); assay: ATG_HNF4a_TRANS: Attagene TRANS-FACTORIAL HepG2 Assay for human Hepatocyte Nuclear Factor 4 alpha (HNF4a) (AID 2282982); conditions: HepG2 HNF4a transactivation reporter, mRNA readout
In short: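 Readout is fluorescent reporter-transcript fragments resolved by capillary electrophoresis after RT-PCR from HepG2 cells dosed for 24 h. Cells carried transfected GAL4-UAS reporter constructs measuring exogenous NR-GAL4 chimera activity; DMSO served as baseline.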

[4] = molecular target: Nuclear receptor subfamily 4 group A member 2 (Homo sapiens) (UniProt P43354); assay: ATG_NURR1_TRANS: Attagene TRANS-FACTORIAL HepG2 Assay for human Nuclear Receptor Related Protein 1 (NURR1) (AID 2282985); conditions: HepG2 Attagene TRANS reporter, mRNA readout
In short: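 Transient transfection of HepG2, human liver cells, with multiple GAL4-UAS reporter transcription units. Cells dosed 24 h, RNA isolated, reverse-transcribed, PCR-amplified, FAM-labelled, HpaI-digested, sized by capillary electrophoresis. DMSO served as negative control.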

[5] = molecular target: human Peroxisome Proliferator-activated Receptor alpha (PPARa), PPARA (gene 5465) (UniProt Q07869); assay: ATG_PPARa_TRANS: Attagene TRANS-FACTORIAL HepG2 Assay for human Peroxisome Proliferator-activated Receptor alpha (PPARa) (AID 2283001);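 further: potency for gain of reporter signal over DMSO so agonist or activator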
In short: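 Read-out is fluorescence of reporter cDNA fragments resolved by capillary electrophoresis after RT-PCR. Human HepG2 liver cells carried transfected PPARa-Gal4 chimera and GAL4-UAS reporter units, treated 24 h; activity scored as increase over DMSO.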

[6] = molecular target: Retinoic acid receptor alpha (Homo sapiens) (UniProt P10276); assay: ATG_RARa_TRANS: Attagene TRANS-FACTORIAL HepG2 Assay for human Retinoic Acid Receptor alpha (RARa) (AID 2283005);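 on AC50: potency for increased reporter signal meaning RARa activation over DMSO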
In short: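 Reporter transcripts, measured by RT-PCR with fluorescent labeling and capillary electrophoresis after 24 h dosing, reflect activity of an exogenous human RARa–GAL4 fusion in transiently transfected HepG2. Fitted for increase relative to DMSO.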

[7] = molecular target: human Retinoic Acid Receptor gamma (RARg), RARG (gene 5916) (UniProt P13631); assay: ATG_RARg_TRANS: Attagene TRANS-FACTORIAL HepG2 Assay for human Retinoic Acid Receptor gamma (RARg) (AID 2283009);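 on AC50: AC50 is for reporter induction above DMSO meaning RARg activation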
In short: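 HepG2 transiently transfected with GAL4-UAS reporter units and chimeric NR-Gal4 constructs; 24 h compound exposure. Reporter mRNA quantified by RT-PCR, FAM labeling, HpaI digestion and capillary electrophoresis; gain-of-signal versus DMSO.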

[8] = molecular target: human Retinoid X Receptor beta (RXRb), RXRB (gene 6257) (UniProt P28702); assay: ATG_RXRb_TRANS: Attagene TRANS-FACTORIAL HepG2 Assay for human Retinoid X Receptor beta (RXRb) (AID 2283013)
In short: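 HepG2 cells were transiently transfected with multiplexed GAL4-UAS reporters and a chimeric RXRb-Gal4 construct, then exposed for 24 h. Reporter mRNA was quantified by RT-PCR, FAM labeling, HpaI digestion and capillary electrophoresis; gain of signal was scored against DMSO.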

[9] = molecular target: human Thyroid Receptor alpha (THRa1), THRA (gene 7067) (UniProt P10827); assay: ATG_THRa1_TRANS: Attagene TRANS-FACTORIAL HepG2 Assay for human Thyroid Receptor alpha (THRa1) (AID 2283014)
In short: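 Transient HepG2 transfection, NR-Gal4 chimera driving GAL4-UAS reporters; 24 h compound exposure; total RNA, oligo(dT) RT, PCR, fluorescent primer extension, capillary electrophoresis. Upward direction vs DMSO control.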

[10] = TOX21_p53_BLA_p2_viability: Viability Assessment in the Tox21 HCT-116 p53 Agonism Beta-lactamase Assay, Phase 2 (AID 2283591);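 further: compound exposure lasted 16 h at 37 °C; actives lower the ATP signal meaning cytotoxicity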
In short: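 Cytotoxicity readout: CellTiter-Glo ATP luminescence, 30 min at room temperature, after the beta-lactamase read. Cells were HCT116 exposed 16 h at 37C to compounds pin-transferred at 217-fold dilution from DMSO stocks.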

[11] = TOX21_p53_BLA_p3_viability: Viability Assessment in the Tox21 HCT-116 p53 Agonism Beta-lactamase Assay, Phase 3 (AID 2283593);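 further: cells exposed to compound for 16 h before reading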
In short: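 Cellular ATP was quantified by CellTiter-Glo luminescence, read after 30 min at room temperature. Beforehand, HCT116 cells (4000/well) received compound 5 h post-seeding, 217-fold diluted from DMSO, then incubated 16 h at 37C.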

[12] = TOX21_p53_BLA_p4_viability: Viability Assessment in the Tox21 HCT-116 p53 Agonism Beta-lactamase Assay, Phase 4 (AID 2283597);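 further: hits lower the luminescence signal meaning cytotoxicity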
In short: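 We seeded HCT116 p53 reporter cells at 4000/well and waited 5 h. We then added compounds in DMSO at a 217-fold dilution and incubated for 16 h. Viability was read as CellTiter-Glo luminescence after 30 min at RT.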

[13] = ACEA_ER_AUC_viability: ACEA Biosciences xCELLigence Real-Time Cell Analysis on Estrogen Receptor Agonism for Viability (AID 2283782);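 further: continuous compound exposure with impedance area under curve over 80 h; hit means loss of impedance signal meaning reduced cell growth or viability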
In short: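 T-47D; phenol red-free RPMI1640 + 10% CS-FBS; 8 conc., 1:4 serial, max 100 uM final, ≤0.5% DMSO; n = 2; continuous exposure; impedance monitored to 80 h post-dose; AUC vs DMSO.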

[14] = molecular target: Oxysterols receptor LXR-alpha (Homo sapiens) (UniProt Q13133); assay: ATG_LXRa_TRANS: Attagene TRANS-FACTORIAL HepG2 Assay for human Liver X Receptor alpha (LXRa) (AID 2282980); conditions: HepG2 Attagene TRANS reporter, LXRa transactivation
In short: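 Read-out: reporter transcript levels by RT-PCR plus capillary electrophoresis, fluorescence intensity. Transiently transfected HepG2, exogenous NR-GAL4 chimera, GAL4-UAS reporters; 24 h compound exposure. Activity = increase over DMSO negative control.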

[15] = molecular target: Oxysterols receptor LXR-beta (Homo sapiens) (UniProt P55055); assay: ATG_LXRb_TRANS: Attagene TRANS-FACTORIAL HepG2 Assay for human Liver X Receptor beta (LXRb) (AID 2282981); conditions: HepG2 Attagene TRANS GAL4-LXRb reporter, mRNA
In short: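 Transient transfection HepG2 (multiplexed RTUs, GAL4-UAS); NR-Gal4 chimera; 24 h exposure; RNA → RT-PCR → 6-FAM primer extension → HpaI → CE; increase vs DMSO.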

[16] = molecular target: human Retinoic Acid Receptor beta (RARb), RARB (gene 5915) (UniProt P10826); assay: ATG_RARb_TRANS: Attagene TRANS-FACTORIAL HepG2 Assay for human Retinoic Acid Receptor beta (AID 2283004)
In short: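 Readout is reporter mRNA induction: RNA reverse-transcribed, PCR-amplified, FAM-labelled, HpaI-cut and resolved by capillary electrophoresis. Transiently transfected HepG2 cells carrying exogenous NR–Gal4 chimeras were dosed for 24 h; activity fitted upward relative to DMSO.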

[17] = molecular target: human RAR-related Orphan Receptor beta (RORb), RORB (gene 6096) (UniProt Q92753); assay: ATG_RORb_TRANS: Attagene TRANS-FACTORIAL HepG2 Assay for human RAR-related Orphan Receptor beta (RORb) (AID 2283010);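 on AC50: potency for increased reporter mRNA meaning activation of RORb-Gal4 chimera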
In short: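 HepG2 cells transiently transfected with GAL4-UAS reporter units expressing chimeric NR-Gal4 protein; reporter mRNA measured 24 h after dosing by RT-PCR, 6-FAM labelling and capillary electrophoresis. Gain-of-signal fitted relative to DMSO baseline.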

[18] = molecular target: human RAR-related Orphan Receptor gamma (RORg), RORC (gene 6097) (UniProt P51449); assay: ATG_RORg_TRANS: Attagene TRANS-FACTORIAL HepG2 Assay for human RAR-related Orphan Receptor gamma (RORg) (AID 2283011);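 further: potency for induction of reporter transcripts above DMSO so activators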
In short: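 Transient MRTU transfection of HepG2 (TRANS format, exogenous NR-Gal4 chimera). 24 h dosing. Total RNA → oligo(dT) RT → PCR → 6-FAM labelling → HpaI cut → CE. Gain vs DMSO.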

[19] = molecular target: Retinoic acid receptor RXR-alpha (Homo sapiens) (UniProt P19793); assay: ATG_RXRa_TRANS: Attagene TRANS-FACTORIAL HepG2 Assay for human Retinoid X Receptor alpha (RXRa) (AID 2283012)
In short: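 HepG2 cells transiently transfected with GAL4-UAS reporter units and chimeric RXRa-Gal4 protein, treated 24 h. Reporter mRNA measured by RT-PCR, fluorescent labelling, HpaI digestion and capillary electrophoresis. Induction fitted against DMSO.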

Measured: AC50

CC1CCC(C(C)CS)CC1S (stereo unspecified)
inactive: [1] | [7] | [11] | [12]
inconclusive: [2] 56.4 µM | [3] 33.4 µM | [4] 33.4 µM | [6] 8.99 µM | [9] 55.7 µM | [10] 46.1 µM | [13] 6.55 µM
active: [5] 53.7 µM | [8] 59.9 µM

C=CC(=O)OCCC#N
inactive: [2] | [15] | [16] | [6] | [7] | [17] | [8] | [11]
inconclusive: [1] 100 µM | [14] 179 µM | [10] 46.3 µM | [12] 74.2 µM

Oc1ccc(Nc2ccccc2)cc1
inconclusive: [14] 0.0823 µM | [16] 100 µM | [6] 64.4 µM | [7] 100 µM | [18] 100 µM | [10] 46.1 µM | [12] 46.1 µM
active: [13] 25.4 µM
inactive: [1] | [2] | [15] | [3] | [17] | [11]

O=Cc1ccc(F)cc1
inactive: [1] | [15] | [17] | [8] | [10] | [12]
inconclusive: [14] 100 µM | [3] 23.8 µM | [5] 17.1 µM | [9] 0.0256 µM | [11] 46.1 µM

CC(=O)Oc1ccccc1C(=O)O
inconclusive: [1] 0.00914 µM | [17] 100 µM | [18] 2.34 µM | [11] 46.1 µM | [12] 23 µM | [13] 50 µM
inactive: [16] | [6] | [7] | [12]
active: [14] 71.6 µM | [15] 100 µM | [4] 100 µM | [19] 127 µM | [8] 8.23 µM
